We go through 18 compounds from PubChem BioAssay AID328 (DTP/NCI, 2004).

For this test, the system named is BDF1 mice, P388 leukemia ip, median survival T/C. In words: NCI In Vivo Anticancer Drug Screen. Data for tumor model P388 Leukemia (intraperitoneal) in B6D2F1 (BDF1) mice. To be noted: T/C endpoint: median survival time, higher T/C = longer survival. An outline of the steps:
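In tumour-bearing mice, survival after compound treatment is set against the vehicle group and given as a quotient.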

[1] abbreviates: dose: 6.25 mg/kg/injection, schedule: Q01DX009 (ip), vehicle: saline.
Where [2] appears, read: dose: 200.0 mg/kg/injection, schedule: Q01DX009 (ip), vehicle: saline with Tween-80.
[3] abbreviates: dose: 50.0 mg/kg/injection, schedule: Q04DX003 (ip), vehicle: saline with Tween-80.
Setting [4] is: dose: 100.0 mg/kg/injection, schedule: Q01DX009 (ip), vehicle: saline.
Setting [5] is: dose: 25.0 mg/kg/injection, schedule: Q04DX003 (ip), vehicle: saline with Tween-80.

The list does not hold the whole screen: it gathers tests that were run many times, whatever their T/C, doses with no T/C, and many T/C values between a quarter and a half above the control. Further doses and runs are listed elsewhere. T/C is the treated group as % of the vehicle group. Some doses have a count of surviving animals in place of a T/C: the source holds a T/C of zero for them, seemingly a mark for toxic or unscored doses. Some survivor counts are full or nearly so, which does not show that the dose was tolerated: the source hardly ever lists a survival T/C far under the control, and the zero likely stands for such cases as well. Survivors were counted at the toxicity check, usually on the fifth day, unless a day is given; later deaths do not show. Schedules are NCI's codes, read here as Q, the interval in days (D) or hours (H), X, the number of doses. Where survival is the endpoint, the PubChem record calls one and a half times the control and up active, and a quarter to a half above the control has no call in these data; cut-offs in other NCI protocols can differ. Some doses were run more than once; their values stand side by side, smallest first.

For `COc1ccc2c(C)c3[n+](cc2c1OC)CCc1cc2c(cc1-3)OCO2`, the survivor count is, setting by setting: (dose: 3.12 mg/kg/injection, schedule: Q01DX005 (ip), vehicle: saline with Tween-80) 6 of 6; (dose: 6.25 mg/kg/injection, schedule: Q01DX005 (ip), vehicle: saline with Tween-80) 3 of 6; (dose: 12.5 mg/kg/injection, schedule: Q01DX005 (ip), vehicle: saline with Tween-80) 3 of 6; (dose: 50.0 mg/kg/injection, schedule: Q01DX005 (ip), vehicle: saline with Tween-80) 0 of 6; (dose: 100.0 mg/kg/injection, schedule: Q01DX005 (ip), vehicle: saline with Tween-80) 0 of 6; (dose: 200.0 mg/kg/injection, schedule: Q01DX005 (ip), vehicle: saline with Tween-80) 0 of 6.
With `CC1(C)N=C(N)N=C(N)N1c1cccc(CCCCc2ccc(Cl)c(S(=O)(=O)F)c2)c1`, the T/C (dose: 3.5 mg/kg/injection, schedule: Q01DX009 (ip), vehicle: saline) is 130 % of control; the T/C under setting [1] was 129 % of control; the T/C (dose: 7.0 mg/kg/injection, schedule: Q01DX009 (ip), vehicle: saline) is 140 % of control; the T/C (dose: 12.5 mg/kg/injection, schedule: Q01DX009 (ip), vehicle: saline with Tween-80) was 145 % of control; the T/C (dose: 25.0 mg/kg/injection, schedule: Q01DX009 (ip), vehicle: saline with Tween-80) is 145 % of control; the T/C (dose: 28.0 mg/kg/injection, schedule: Q01DX009 (ip), vehicle: saline) is 140 % of control. For the same compound, under “dose: 50.0 mg/kg/injection, schedule: Q01DX009 (ip), vehicle: saline with Tween-80”, the survivor count is given as 3 of 6.
`[Cl][Pt+2]([Cl])([Cl])[Cl].[Na+].[S-]c1ncnc2nc[nH]c12.[S-]c1ncnc2nc[nH]c12`: the T/C is 140 % of control (dose: 132.0 mg/kg/injection, schedule: Q01DX009 (ip), vehicle: saline with Tween-80); 125 and 127 % of control under setting [2].
As to `c1cc[c]([Sn]([O][Sn]([c]2ccccc2)([c]2ccccc2)[c]2ccccc2)([c]2ccccc2)[c]2ccccc2)cc1`, the survivor count was 4 of 6 under setting [3] and 0 of 6 (dose: 100.0 mg/kg/injection, schedule: Q04DX003 (ip), vehicle: saline with Tween-80).
`CC(C)CCCC(C)C1CCC2C3CC=C4CC([S+](C)C)CCC4(C)C3CCC12C` (configuration not stated): the survivor count (dose: 50.0 mg/kg/injection, schedule: Q01DX009 (ip), vehicle: saline) is given as 6 of 6.
For the compound `CCOC(=O)c1ccc(NC(=O)CCl)cc1`, the survivor count reads like this: (dose: 50.0 mg/kg/injection, schedule: Q01DX010 (ip), vehicle: saline) 6 of 6; (dose: 100.0 mg/kg/injection, schedule: Q01DX010 (ip), vehicle: saline) 6 of 6; (dose: 200.0 mg/kg/injection, schedule: Q01DX010 (ip), vehicle: saline) 6 of 6; (dose: 400.0 mg/kg/injection, schedule: Q01DX010 (ip), vehicle: saline) 0 of 6.
With `CCCCCCCOC(C[N+](=O)[O-])C(Cl)(Cl)Cl` (configuration not stated), the survivor count is 3 of 6 (dose: 75.0 mg/kg/injection, schedule: Q01DX009 (ip), vehicle: saline with Tween-80); 0 of 6 (dose: 115.0 mg/kg/injection, schedule: Q01DX009 (ip), vehicle: saline with Tween-80); 0 of 6 (dose: 170.0 mg/kg/injection, schedule: Q01DX009 (ip), vehicle: saline with Tween-80); 6 of 6 (dose: 225.0 mg/kg/injection, schedule: Q04DX003 (ip), vehicle: saline); 6 of 6 (dose: 340.0 mg/kg/injection, schedule: Q04DX003 (ip), vehicle: saline).
With `CC1OC(OC2C(O)CC(OC3C(O)CC(OC4CCC5(C)C(CCC6C5CCC5(C)C(C7=CC(=O)OC7)CCC65O)C4)OC3C)OC2C)CC(O)C1O` (configuration not stated), the survivor count is 1 of 6 (dose: 5.0 mg/kg/injection, schedule: Q01DX010 (ip), vehicle: saline); 1 of 6 (dose: 10.0 mg/kg/injection, schedule: Q01DX010 (ip), vehicle: saline); 2 of 6 (dose: 20.0 mg/kg/injection, schedule: Q01DX010 (ip), vehicle: saline); 0 of 6 (dose: 40.0 mg/kg/injection, schedule: Q01DX010 (ip), vehicle: saline).
Regarding `CC(C)=CC(=O)OCC1CC[N+](C)(C)C1` (configuration not stated), the T/C under setting [1] was 128 % of control. Moreover, the survivor count runs as follows: (dose: 12.5 mg/kg/injection, schedule: Q01DX009 (ip), vehicle: saline) 4 of 4; under setting [4], 0 of 4; (dose: 200.0 mg/kg/injection, schedule: Q01DX001 (ip), vehicle: saline) 1 of 6; (dose: 400.0 mg/kg/injection, schedule: Q01DX001 (ip), vehicle: saline) 0 of 6; (dose: 800.0 mg/kg/injection, schedule: Q01DX001 (ip), vehicle: saline) 0 of 6; (dose: 1600.0 mg/kg/injection, schedule: Q01DX001 (ip), vehicle: saline) 0 of 6.
On to `C/C(CCC(=O)O)=N/O`, for which the survivor count (dose: 400.0 mg/kg/injection, schedule: Q01DX009 (ip), vehicle: saline) is given as 5 of 6.
On to `COc1ccc(C(=O)CC(=O)CC(=O)c2ccccc2)cc1`, for which the survivor count (dose: 100.0 mg/kg/injection, schedule: Q01DX009 (ip), vehicle: Klucel (hydroxypropylcellulose) (HPC)) is 6 of 6.
Regarding `CC(C)CSc1ncnc2nc[nH]c12`, the survivor count is recorded as 4 of 6 under setting [2] and 3 of 6 (dose: 400.0 mg/kg/injection, schedule: Q01DX009 (ip), vehicle: saline with Tween-80).
Take `CCOC(=O)C(Cc1ccc(N(CCCl)CCCl)cc1)NC(=O)C(Cc1ccccc1)NC=O` (configuration not stated): under setting [5], the T/C was 140 % of control. Under setting [2], the survivor count is 6 of 6.
As for `COc1cccc(Sc2ccc([N+](=O)[O-])c3no[n+]([O-])c23)c1`, under “dose: 15.0 mg/kg/injection, schedule: Q01DX009 (ip), vehicle: saline with Tween-80”, the survivor count is 5 of 7.
As for `COc1cccc2c1C(=O)c1c(O)c3c(c(O)c1C2=O)C[C@@](O)(C(C)=O)C[C@@H]3OC1CC(N(Cc2ccccc2)Cc2ccccc2)C(O)C(C)O1` (some centres not stated), the T/C runs as follows: (dose: 18.8 mg/kg/injection, schedule: Q04DX003 (ip), vehicle: water) 127 % of control; (dose: 75.0 mg/kg/injection, schedule: Q04DX003 (ip), vehicle: water) 134 % of control.
For the compound `C=C1C(=O)OC2/C=C(\C)CC(O)/C=C(\C)CC(OC(=O)/C(=C\C)COC(C)=O)C12` (configuration not stated), the T/C (dose: 30.0 mg/kg/injection, schedule: Q01DX009 (ip), vehicle: saline) is 145 % of control. Under setting [4], the survivor count is 4 of 6.
For `COC1=CCC23C(=O)C=CC(=O)C2(C1)C(=O)c1ccccc1C3=O` (configuration not stated), under setting [5], the T/C was 126 % of control. The survivor count under setting [3] is given as 4 of 6.
`CN(C)c1ccc(P(c2ccc(N(C)C)cc2)c2ccc(N(C)C)cc2)cc1`: the survivor count (dose: 12.5 mg/kg/injection, schedule: Q01DX009 (ip), vehicle: Klucel (hydroxypropylcellulose) (HPC)) is given as 6 of 6; the survivor count (dose: 25.0 mg/kg/injection, schedule: Q01DX009 (ip), vehicle: Klucel (hydroxypropylcellulose) (HPC)) is on record as 6 of 6; the survivor count (dose: 50.0 mg/kg/injection, schedule: Q01DX009 (ip), vehicle: Klucel (hydroxypropylcellulose) (HPC)) is reported as 5 of 6; the survivor count (dose: 100.0 mg/kg/injection, schedule: Q04DX003 (ip), vehicle: Klucel (hydroxypropylcellulose) (HPC)) is 6 of 6; the survivor count (dose: 200.0 mg/kg/injection, schedule: Q04DX003 (ip), vehicle: Klucel (hydroxypropylcellulose) (HPC)) is 6 of 6; the survivor count (dose: 400.0 mg/kg/injection, schedule: Q04DX003 (ip), vehicle: Klucel (hydroxypropylcellulose) (HPC)) is on record as 6 of 6.
